Experimental data reported in patent US7531505B2, “Compositions and methods for promoting attachment of cells of endothelial cell lineage to medical devices” (Affinergy, Inc., priority 2006, dated 2009).
Some results were stated once for a whole list of compounds, not compound by compound.

Assay: ELISA of relative binding strength in buffers from pH 2 to pH 12
Details: peptide 1 μM, relative to optimum pH 7.0
Procedure: For determining the effect of pH on binding specificity, the assay for determining relative binding strengths (by ELISA) was performed in the presence of different buffers, varying in pH in a range of from pH 2 to pH 12. For example, a buffer containing glycine and water was adjusted to pH2 using HCl; an acetate buffer was adjusted to pH 4.0 (ionic strength of about 0.001 M); a phosphate buffer (NaH2PO4) was adjusted to pH 6.0 (ionic strength of about 0.012M); a phosphate buffer (NaH2PO4) was adjusted to pH 7.0 (ionic strength of about 0.019M); a tris buffer was adjusted to pH 8.0 (ionic strength of about 0.006M); an ethanolamine buffer was adjusted to pH 10.0 (ionic strength of about 0.003M); and a phosphate buffer (NaH2PO4) was adjusted to pH 12.0 (ionic strength of about 0.044M). The final concentration of each peptide in this assay was 1 μM. Tested in this assay were surface-binding domains comprising a peptide consisting essentially of the amino acid sequence illustrated as SEQ ID NO:3, and the multimers thereof (divalent version (SEQ ID NO:7) and tetravalent version (SEQ ID NO:8)).

SSHRTNHKKNNPKKKNKTR [SEQ ID NO:3]
decrease in binding at pH 6.0 or pH 8.0: ≤ 20%
